The supplement of paper PMC10849652
The list shows a part of the results.

The chains behind the UniProt entries cited, without tags or fusion partners. Where a name states a change or a piece, a line headed by the entry shows the natural chain unless it says otherwise.
UniProt Q8N5B7: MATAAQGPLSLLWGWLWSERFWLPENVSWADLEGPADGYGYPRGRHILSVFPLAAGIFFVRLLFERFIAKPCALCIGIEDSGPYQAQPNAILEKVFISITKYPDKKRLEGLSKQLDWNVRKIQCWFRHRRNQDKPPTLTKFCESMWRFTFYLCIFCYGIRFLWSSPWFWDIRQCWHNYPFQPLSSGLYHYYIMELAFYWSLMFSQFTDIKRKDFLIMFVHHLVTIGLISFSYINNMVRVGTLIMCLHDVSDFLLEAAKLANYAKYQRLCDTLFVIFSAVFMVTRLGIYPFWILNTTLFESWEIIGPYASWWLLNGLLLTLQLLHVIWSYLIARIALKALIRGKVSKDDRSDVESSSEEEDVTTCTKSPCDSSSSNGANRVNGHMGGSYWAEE
UniProt Q15517: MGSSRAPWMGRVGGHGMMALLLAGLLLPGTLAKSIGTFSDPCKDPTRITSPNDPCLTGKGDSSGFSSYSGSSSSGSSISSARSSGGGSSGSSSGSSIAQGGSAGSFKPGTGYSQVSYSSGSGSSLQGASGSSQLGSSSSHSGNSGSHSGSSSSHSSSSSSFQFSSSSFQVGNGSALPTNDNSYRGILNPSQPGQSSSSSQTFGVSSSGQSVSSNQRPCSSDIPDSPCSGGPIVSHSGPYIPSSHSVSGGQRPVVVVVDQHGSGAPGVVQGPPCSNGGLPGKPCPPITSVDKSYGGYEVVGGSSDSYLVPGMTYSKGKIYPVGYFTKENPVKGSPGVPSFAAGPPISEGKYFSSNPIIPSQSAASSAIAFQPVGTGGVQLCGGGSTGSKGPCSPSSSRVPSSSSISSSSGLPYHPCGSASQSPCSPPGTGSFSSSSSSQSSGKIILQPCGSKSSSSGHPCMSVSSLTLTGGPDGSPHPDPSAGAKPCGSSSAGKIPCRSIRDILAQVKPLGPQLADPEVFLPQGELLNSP
UniProt P60953, whole entry, looked up: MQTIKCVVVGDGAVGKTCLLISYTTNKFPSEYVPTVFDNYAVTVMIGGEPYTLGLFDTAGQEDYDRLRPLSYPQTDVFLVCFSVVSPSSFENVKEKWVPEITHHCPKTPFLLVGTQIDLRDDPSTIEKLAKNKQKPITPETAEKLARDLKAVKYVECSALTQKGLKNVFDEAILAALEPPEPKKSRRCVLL
UniProt O75419: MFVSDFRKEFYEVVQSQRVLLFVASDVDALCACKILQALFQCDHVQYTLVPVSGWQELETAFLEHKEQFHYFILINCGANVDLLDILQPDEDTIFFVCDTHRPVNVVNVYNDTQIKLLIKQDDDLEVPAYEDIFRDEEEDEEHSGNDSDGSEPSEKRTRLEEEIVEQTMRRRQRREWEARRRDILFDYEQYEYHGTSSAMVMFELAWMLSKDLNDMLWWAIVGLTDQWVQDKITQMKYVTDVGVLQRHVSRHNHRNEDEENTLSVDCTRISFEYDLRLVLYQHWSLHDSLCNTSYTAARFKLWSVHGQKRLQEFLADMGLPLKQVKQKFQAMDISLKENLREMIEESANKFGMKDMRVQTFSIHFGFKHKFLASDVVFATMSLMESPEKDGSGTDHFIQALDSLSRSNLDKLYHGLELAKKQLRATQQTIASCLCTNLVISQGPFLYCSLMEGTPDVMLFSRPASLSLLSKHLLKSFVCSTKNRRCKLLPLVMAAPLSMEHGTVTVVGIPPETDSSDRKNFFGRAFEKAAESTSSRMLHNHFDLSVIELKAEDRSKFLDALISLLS
UniProt Q69YH5: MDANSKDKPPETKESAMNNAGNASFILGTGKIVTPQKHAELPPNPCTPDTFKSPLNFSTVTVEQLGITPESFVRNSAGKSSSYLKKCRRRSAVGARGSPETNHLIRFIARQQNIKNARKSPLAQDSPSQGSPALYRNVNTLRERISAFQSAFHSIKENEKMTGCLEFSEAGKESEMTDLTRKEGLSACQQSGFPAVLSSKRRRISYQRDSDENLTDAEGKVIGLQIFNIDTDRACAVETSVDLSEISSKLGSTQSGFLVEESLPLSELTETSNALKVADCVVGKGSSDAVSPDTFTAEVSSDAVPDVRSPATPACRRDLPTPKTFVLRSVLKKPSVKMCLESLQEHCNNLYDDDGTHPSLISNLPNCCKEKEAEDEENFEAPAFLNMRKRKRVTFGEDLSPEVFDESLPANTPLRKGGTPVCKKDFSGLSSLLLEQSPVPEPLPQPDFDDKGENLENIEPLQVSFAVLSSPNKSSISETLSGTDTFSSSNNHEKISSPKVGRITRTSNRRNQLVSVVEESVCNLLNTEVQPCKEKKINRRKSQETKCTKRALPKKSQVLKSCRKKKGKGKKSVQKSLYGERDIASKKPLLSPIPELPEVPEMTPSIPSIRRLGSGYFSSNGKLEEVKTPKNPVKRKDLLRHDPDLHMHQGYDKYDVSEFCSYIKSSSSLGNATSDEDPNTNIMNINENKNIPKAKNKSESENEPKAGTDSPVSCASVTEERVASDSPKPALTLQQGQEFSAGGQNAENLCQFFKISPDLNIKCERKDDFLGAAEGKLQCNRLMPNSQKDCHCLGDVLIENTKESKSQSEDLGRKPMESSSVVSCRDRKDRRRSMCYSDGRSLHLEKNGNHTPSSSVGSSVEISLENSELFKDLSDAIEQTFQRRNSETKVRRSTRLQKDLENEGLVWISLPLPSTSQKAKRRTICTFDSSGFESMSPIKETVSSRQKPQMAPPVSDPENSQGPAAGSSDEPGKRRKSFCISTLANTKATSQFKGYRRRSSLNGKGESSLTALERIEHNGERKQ
UniProt Q6P2H3: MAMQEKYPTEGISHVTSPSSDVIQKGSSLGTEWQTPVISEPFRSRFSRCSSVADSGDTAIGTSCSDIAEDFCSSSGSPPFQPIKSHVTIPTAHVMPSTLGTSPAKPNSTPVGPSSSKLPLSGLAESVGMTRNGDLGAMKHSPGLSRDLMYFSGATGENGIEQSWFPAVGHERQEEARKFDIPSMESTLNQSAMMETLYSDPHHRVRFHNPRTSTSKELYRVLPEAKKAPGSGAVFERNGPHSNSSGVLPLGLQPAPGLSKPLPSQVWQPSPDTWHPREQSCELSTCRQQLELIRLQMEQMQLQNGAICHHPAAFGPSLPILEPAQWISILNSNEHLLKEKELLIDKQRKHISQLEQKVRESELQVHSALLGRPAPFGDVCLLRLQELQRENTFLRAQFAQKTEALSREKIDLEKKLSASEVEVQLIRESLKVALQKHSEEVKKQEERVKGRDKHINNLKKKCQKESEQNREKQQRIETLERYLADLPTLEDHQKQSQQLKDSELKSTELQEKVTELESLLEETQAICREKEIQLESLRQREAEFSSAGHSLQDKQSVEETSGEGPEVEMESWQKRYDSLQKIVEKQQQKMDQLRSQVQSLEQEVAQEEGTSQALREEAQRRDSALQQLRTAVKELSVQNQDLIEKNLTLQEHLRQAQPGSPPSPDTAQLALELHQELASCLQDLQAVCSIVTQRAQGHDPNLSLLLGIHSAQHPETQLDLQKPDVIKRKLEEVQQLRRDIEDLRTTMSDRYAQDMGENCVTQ
UniProt Q86WJ1: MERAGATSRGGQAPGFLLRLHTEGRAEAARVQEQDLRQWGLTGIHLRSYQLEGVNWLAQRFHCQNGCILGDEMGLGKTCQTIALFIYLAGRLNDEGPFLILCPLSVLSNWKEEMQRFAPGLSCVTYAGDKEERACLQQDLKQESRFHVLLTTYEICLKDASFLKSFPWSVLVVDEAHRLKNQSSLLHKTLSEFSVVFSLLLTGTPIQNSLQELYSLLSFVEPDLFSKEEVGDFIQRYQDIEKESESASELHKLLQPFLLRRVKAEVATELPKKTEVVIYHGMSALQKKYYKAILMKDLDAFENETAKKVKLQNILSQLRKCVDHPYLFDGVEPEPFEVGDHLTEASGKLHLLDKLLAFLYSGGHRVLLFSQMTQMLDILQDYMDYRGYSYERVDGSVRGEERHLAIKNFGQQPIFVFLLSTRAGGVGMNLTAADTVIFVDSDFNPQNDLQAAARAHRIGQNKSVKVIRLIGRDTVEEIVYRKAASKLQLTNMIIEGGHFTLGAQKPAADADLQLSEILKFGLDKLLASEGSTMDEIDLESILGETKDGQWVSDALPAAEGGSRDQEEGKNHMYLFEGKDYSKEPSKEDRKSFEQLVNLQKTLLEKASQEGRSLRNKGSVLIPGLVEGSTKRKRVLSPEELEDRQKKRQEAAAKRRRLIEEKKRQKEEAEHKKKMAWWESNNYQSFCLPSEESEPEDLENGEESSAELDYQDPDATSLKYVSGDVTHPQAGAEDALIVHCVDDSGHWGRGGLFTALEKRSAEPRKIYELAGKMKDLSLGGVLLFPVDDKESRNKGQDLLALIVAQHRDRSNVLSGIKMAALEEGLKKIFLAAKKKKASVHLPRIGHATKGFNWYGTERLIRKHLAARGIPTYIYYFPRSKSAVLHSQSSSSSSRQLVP
UniProt Q66GS9: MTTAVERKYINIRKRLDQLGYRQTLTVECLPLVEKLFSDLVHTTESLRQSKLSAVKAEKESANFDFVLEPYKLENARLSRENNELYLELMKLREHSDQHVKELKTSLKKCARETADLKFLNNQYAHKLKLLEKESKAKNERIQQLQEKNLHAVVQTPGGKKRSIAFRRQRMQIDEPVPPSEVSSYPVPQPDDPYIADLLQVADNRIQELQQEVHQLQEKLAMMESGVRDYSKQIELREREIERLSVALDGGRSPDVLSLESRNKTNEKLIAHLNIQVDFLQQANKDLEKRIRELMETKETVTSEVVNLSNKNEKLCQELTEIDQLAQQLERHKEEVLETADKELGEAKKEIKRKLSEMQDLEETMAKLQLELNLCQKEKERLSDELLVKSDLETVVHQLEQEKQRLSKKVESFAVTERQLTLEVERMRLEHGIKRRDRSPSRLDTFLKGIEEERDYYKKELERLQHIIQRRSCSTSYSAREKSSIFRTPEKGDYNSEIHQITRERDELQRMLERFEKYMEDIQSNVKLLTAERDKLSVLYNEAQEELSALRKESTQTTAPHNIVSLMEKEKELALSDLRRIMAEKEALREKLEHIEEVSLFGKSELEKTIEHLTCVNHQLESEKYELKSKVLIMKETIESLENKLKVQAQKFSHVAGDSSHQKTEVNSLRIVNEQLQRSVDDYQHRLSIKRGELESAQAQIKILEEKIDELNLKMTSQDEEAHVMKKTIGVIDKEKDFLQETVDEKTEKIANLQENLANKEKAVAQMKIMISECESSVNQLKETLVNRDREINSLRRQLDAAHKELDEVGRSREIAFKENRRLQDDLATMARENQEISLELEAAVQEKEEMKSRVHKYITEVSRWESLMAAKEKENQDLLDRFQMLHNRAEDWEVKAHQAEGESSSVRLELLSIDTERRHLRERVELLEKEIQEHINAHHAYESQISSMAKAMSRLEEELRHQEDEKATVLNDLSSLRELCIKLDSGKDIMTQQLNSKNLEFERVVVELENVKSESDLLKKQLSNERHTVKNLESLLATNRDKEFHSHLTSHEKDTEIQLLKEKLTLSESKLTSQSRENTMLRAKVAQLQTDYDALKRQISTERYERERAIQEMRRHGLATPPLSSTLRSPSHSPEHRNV
UniProt Q9UPN4: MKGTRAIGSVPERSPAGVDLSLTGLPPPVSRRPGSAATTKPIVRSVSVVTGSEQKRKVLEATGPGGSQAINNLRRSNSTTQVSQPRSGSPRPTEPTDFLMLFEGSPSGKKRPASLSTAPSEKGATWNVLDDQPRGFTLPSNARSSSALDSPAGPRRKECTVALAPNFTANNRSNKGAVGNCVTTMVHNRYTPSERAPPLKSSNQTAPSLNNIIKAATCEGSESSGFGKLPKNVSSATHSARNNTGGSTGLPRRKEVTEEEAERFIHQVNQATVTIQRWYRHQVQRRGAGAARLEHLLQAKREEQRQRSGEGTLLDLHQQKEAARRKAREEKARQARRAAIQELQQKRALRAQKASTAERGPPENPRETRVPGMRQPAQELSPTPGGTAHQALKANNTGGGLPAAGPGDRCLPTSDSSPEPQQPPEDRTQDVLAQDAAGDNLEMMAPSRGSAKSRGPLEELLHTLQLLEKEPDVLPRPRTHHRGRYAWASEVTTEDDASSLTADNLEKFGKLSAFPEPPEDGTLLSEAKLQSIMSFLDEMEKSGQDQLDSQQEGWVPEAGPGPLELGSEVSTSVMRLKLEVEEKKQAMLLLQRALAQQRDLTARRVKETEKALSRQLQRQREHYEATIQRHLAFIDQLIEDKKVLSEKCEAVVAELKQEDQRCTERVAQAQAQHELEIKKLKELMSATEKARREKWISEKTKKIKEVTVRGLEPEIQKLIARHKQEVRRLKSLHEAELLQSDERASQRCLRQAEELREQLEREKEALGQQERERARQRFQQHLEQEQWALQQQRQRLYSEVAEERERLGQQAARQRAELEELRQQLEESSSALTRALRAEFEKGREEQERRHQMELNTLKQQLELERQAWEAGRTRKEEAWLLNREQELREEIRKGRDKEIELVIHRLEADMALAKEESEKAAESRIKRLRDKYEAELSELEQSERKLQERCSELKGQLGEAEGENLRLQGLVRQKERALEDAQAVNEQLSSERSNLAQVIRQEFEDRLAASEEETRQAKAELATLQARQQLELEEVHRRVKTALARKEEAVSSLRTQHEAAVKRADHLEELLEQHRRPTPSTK

Tests used:
Experiment in all cases: log2 fold change, soluble protein after heating vs DMSO (PISA); higher = thermal stabilisation; K562 cells, 10 uM, 30 min; active = over 0.2 and 3.5 SD of the protein, either way, in both replicates (recomputed)
[1] = compound: C1=CC=C(C=C1)[C@H](COC2=CC3=C(C=C2)NC(=O)N3)NC(=O)C4=CC=CN(C4=O)CC5=CC(=C(C=C5)F)F
In short: (§1)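 K562 cells at 2×10^6 cells/mL were given 10 μM compound for 30 min. Aliquots then went through 3 min of heating across 48°C-58°C, were pooled, and were extracted in PBS with 0.5% NP-40 at 4°C, and the supernatant after 21,000xg for 90 min was quantified by TMTpro 16plex LC-MS/MS with channel sums equalised. Thermal stability relative to control samples, from duplicates, is given as log2 fold change.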

[2] = compound: CC1=C(SC2=C1C(=N[C@H](C3=NN=C(N32)C)CC(=O)N)C4=CC=C(C=C4)Cl)C
In short: as §1

[3] = compound: CC1=C2C(=CC=C1)N=C(N(C2=O)C3=CC=CC=C3C)CN4C=NC5=C(N=CN=C54)N
In short: as §1

[4] = compound: Cc1sc2c(c1C)C(c1ccc(Cl)cc1)=N[C@@H](CC(=O)OC(C)(C)C)c1nnc(C)n1-2
In short: as §1

[5] = compound: c1ccc([C@@H]2C[C@H]2NC2CCNCC2)cc1
In short: as §1

Measured: log2 fold change

CETN3 (UniProt O15182)
inactive: [1] 0.019 | [2] -0.055 | [3] 0.109 | [4] 0.008 | [5] -0.014

CDK5 (UniProt Q00535)
inactive: [1] -0.015 | [2] 0.087 | [3] -0.003 | [4] -0.023 | [5] -0.005

CDK9 isoform 2 (UniProt P50750)
inactive: [1] -0.007 | [2] -0.03 | [3] 0 | [4] 0.089 | [5] 0

CDK2 (UniProt P24941)
inactive: [1] 0.005 | [2] 0.035 | [3] 0.07 | [4] -0.037 | [5] -0.004

CEP120 (UniProt Q8N960)
inactive: [1] 0.045 | [2] 0.526 | [3] 0.046 | [4] -0.009 | [5] -0.416

CERS5 (UniProt Q8N5B7)
inactive: [1] -0.014 | [2] -0.046 | [3] -0.008 | [4] -0.035 | [5] -0.032

CHCHD1 (UniProt Q96BP2)
inactive: [1] 0.07 | [2] -0.056 | [3] -0.031 | [4] 0.168 | [5] 0.021

CHCHD2 (UniProt Q9Y6H1)
inactive: [1] -0.016 | [2] 0.082 | [3] -0.007 | [4] -0.065 | [5] -0.011

CDK11B (UniProt P21127)
inactive: [1] -0.05 | [2] 0.015 | [3] 0.137 | [4] -0.01 | [5] 0.059

CDS2 (UniProt O95674)
inactive: [1] -0.015 | [2] 0.063 | [3] -0.029 | [4] -0.087 | [5] -0.025

CDC42BPA isoform 6 (UniProt Q5VT25)
inactive: [1] -0.101 | [2] -0.039 | [3] 0.083 | [4] 0.031 | [5] 0.069

CDSN (UniProt Q15517)
inactive: [1] -0.089 | [2] 0.182 | [3] -0.454 | [4] -0.336 | [5] 0.122

CDC42 isoform 1 (UniProt P60953)
inactive: [1] -0.007 | [2] -0.001 | [3] 0 | [4] 0.03 | [5] 0.037

CHEK2 isoform 9 (UniProt O96017)
inactive: [1] -0.04 | [2] 0.034 | [3] 0.036 | [4] -0.094 | [5] -0.035

CHCHD7 isoform 4 (UniProt Q9BUK0)
inactive: [1] -0.042 | [2] 0.151 | [3] -0.273 | [4] 0.042 | [5] 0.136

CEP170 (UniProt Q5SW79)
inactive: [1] 0.027 | [2] -0.096 | [3] -0.057 | [4] 0.16 | [5] -0.019

CDK8 (UniProt P49336)
inactive: [1] 0 | [2] -0.043 | [3] 0.018 | [4] 0.035 | [5] -0.129

CEP57 (UniProt Q86XR8)
inactive: [2] -0.157 | [5] -0.115

CDC5L (UniProt Q99459)
inactive: [2] -0.237 | [3] 0.131 | [4] -0.003 | [5] -0.014

CDC45 isoform 3 (UniProt O75419)
inactive: [2] 0.018 | [4] 0.124 | [5] 0.061

CDCA2 (UniProt Q69YH5)
inactive: [2] 0.035 | [3] 0.05 | [4] -0.003 | [5] -0.077

CEP170B (UniProt Q9Y4F5)
inactive: [1] 0.162 | [3] -0.148

CENPJ (UniProt Q9HC77)
inactive: [4] 0.055

Reprinted from the listing (2 entries):
CDK9 isoform 2 (UniProt P50750)
inactive: [1] -0.007 | [2] -0.03 | [3] 0 | [4] 0.089 | [5] 0

CDK2 (UniProt P24941)
inactive: [1] 0.005 | [2] 0.035 | [3] 0.07 | [4] -0.037 | [5] -0.004

Continued.

CEP85 (UniProt Q6P2H3)
inactive: [1] -0.164 | [3] 0.043

CDNF (UniProt Q49AH0)
inactive: [3] -0.02

CENPC (UniProt Q03188)
inactive: [2] -0.215 | [3] -0.111 | [5] -0.1

CDC42BPG (UniProt Q6DT37)
inactive: [3] -0.24

CHFR (UniProt Q96EP1)
inactive: [3] 0.097 | [4] 0.064

CHM (UniProt P24386)
inactive: [2] 0.032 | [3] -0.026 | [4] -0.15 | [5] -0.018

CDK19 (UniProt Q9BWU1)
inactive: [2] 0.035 | [3] 0.05 | [4] 0.021 | [5] 0.019

CENPV (UniProt Q7Z7K6)
inactive: [2] -0.403 | [5] 0.199

CDC42EP2 (UniProt O14613)
inactive: [1] 0.258 | [4] 0.011

CDK5RAP2 (UniProt Q96SN8)
inactive: [1] 0.196 | [3] 0.036 | [4] 0.064

CEBPZOS (UniProt A8MTT3)
inactive: [1] -0.044 | [3] -0.105 | [4] -0.022

CHD1L (UniProt Q86WJ1)
inactive: [3] 0.063

CEND1 (UniProt Q8N111)
inactive: [4] -0.026

CEBPG (UniProt P53567)
inactive: [2] 0.272 | [5] -0.014

CEP135 (UniProt Q66GS9)
inactive: [1] 0.025 | [2] 0.233 | [5] 0.038

CHCHD10 (UniProt Q8WYQ3)
inactive: [1] 0.048 | [3] -0.064

CHIC1 (UniProt Q5VXU3)
inactive: [1] -0.054 | [4] -0.107

CEP97 isoform 2 (UniProt Q8IW35)
inactive: [2] -0.048 | [3] 0.071 | [4] -0.085 | [5] -0.042

CEP350 (UniProt Q5VT06)
inactive: [2] -0.049 | [4] -0.001 | [5] -0.056

CHMP2A (UniProt M0R1T5)
inactive: [4] -0.09

CEBPZ (UniProt Q03701)
inactive: [2] -0.172 | [3] -0.07 | [4] -0.561 | [5] -0.041

CHCHD5 (UniProt Q9BSY4)
inactive: [1] 0.026 | [2] 0.148 | [5] -0.066

CDC7 (UniProt O00311)
inactive: [3] -0.099

CEP152 (UniProt O94986)
inactive: [1] -0.034 | [3] 0.024 | [4] 0.142

CDR2L (UniProt Q86X02)
inactive: [2] 0.052 | [3] 0.189 | [4] 0.066 | [5] 0.011

CEP131 (UniProt Q9UPN4)
inactive: [2] -0.048 | [4] 0.007 | [5] -0.058

CENPQ (UniProt Q7L2Z9)
inactive: [2] -0.044 | [4] -0.035 | [5] 0.053

CEFIP (UniProt Q711Q0)
inactive: [1] -0.096 | [3] 0.232

CFAP47 (UniProt Q6ZTR5)
inactive: [1] 0.068 | [3] 0.173

CENPU (UniProt Q71F23)
inactive: [4] 0.375

CELSR2 (UniProt Q9HCU4)
inactive: [2] -0.016 | [5] 0.257
